Assays:
[1] = single i.v. dose, equimolar; sacrifice at 24 hours, 14 and 28 days; percent of administered dose
[2] = assay type: binding, human; conditions: 1 min, separate experiment

NCCCC(O)(P(=O)([O-])[O-])P(=O)(O)O.[Na+].[Na+] [^3 H-ABP, 4-amino-1-hydroxybutylidene bisphosphonic acid disodium salt]
total uptake by rat tibiae and femora [1]: approximately 34%
uptake of ^3 H-ABP by bone [2]: 77%

— US5409911A, “Prostaglandin analog for treating osteoporosis” (Merck & Co., Inc., priority 1992, dated 1995)
